Data as given in PubChem BioAssay AID1259425 (University of Nebraska Medical Center, 2018)

- Screen: 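Find knockdowns that reproduce the gene expression pattern seen when KSR1 is lost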 (primary screen)
- Cell system: HCT116 human colon cancer cells
- Reagents: siRNA pool against human genes, 50 nM siRNA
- Measured: 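mRNA of six signature genes measured together by branched-DNA assay after 50 nM siRNA pool, blank removed, divided by geometric mean of two housekeeping genes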
- Reading the numbers: BNIP3L mRNA: higher = more BNIP3L transcript after knockdown; NDRG1 mRNA: higher = more NDRG1 transcript after knockdown; BNIP3 mRNA: higher = more BNIP3 transcript after knockdown
In all, the deposit lists about 14,000 reagents; below is a part drawn at random. Further read-outs or replicates are left out here. Not stated in the record: the time to read-out.

| gene | BNIP3L mRNA, set 1 | NDRG1 mRNA, set 1 | BNIP3 mRNA, set 1 |
| --- | --- | --- | --- |
| PTP4A3 (protein tyrosine phosphatase 4A3) | 0.0712 | 0.123 | 0.341 |
| LILRB3 (leukocyte immunoglobulin like receptor B3) | 0.104 | 0.195 | 0.31 |
| EPHA8 (EPH receptor A8) | 0.119 | 0.0747 | 0.398 |
| SLC16A5 | 0.215 | 0.604 | 0.472 |
| TES (testin LIM domain protein) | 0.133 | 0.185 | 0.526 |
| SYNRG (synergin gamma) | 0.0406 | 0.0993 | 0.227 |
| PLXDC1 (plexin domain containing 1) | 0.186 | 0.21 | 0.698 |
| MMP25 (matrix metallopeptidase 25) | 0.194 | 0.22 | 0.198 |
| MET (MET proto-oncogene, receptor tyrosine kinase) | 0.0891 | 0.185 | 0.25 |
| WBP1L (WW domain binding protein 1 like) | 0.0842 | 1.05 | 0.294 |
| SPRYD7 (SPRY domain containing 7) | 0.0844 | 0.189 | 0.401 |
| BMAL1 (basic helix-loop-helix ARNT like 1) | 0.0993 | 0.149 | 0.287 |
| PLSCR4 (phospholipid scramblase 4) | 0.137 | 0.159 | 0.37 |
| CYP2E1 (cytochrome P450 family 2 subfamily E member 1) | 0.0821 | 0.138 | 0.256 |
| NAPSA (napsin A aspartic peptidase) | 0.135 | 0.139 | 0.289 |
| PMPCB (peptidase, mitochondrial processing subunit beta) | 0.0959 | 0.228 | 0.316 |
| SLC17A4 | 0.169 | 0.788 | 0.262 |
| IL18R1 (interleukin 18 receptor 1) | 0.0834 | 0.129 | 0.299 |
| KLF4 (KLF transcription factor 4) | 0.11 | 0.17 | 0.322 |
| GMCL1 (germ cell-less 1, spermatogenesis associated) | 0.179 | 0.439 | 0.242 |
| ZFR2 (zinc finger RNA binding protein 2) | 0.147 | 0.246 | 0.282 |
| BATF3 (basic leucine zipper ATF-like transcription factor 3) | 0.124 | 0.106 | 0.31 |
| HDAC9 (histone deacetylase 9) | 0.0438 | 0.0871 | 0.334 |
| SLC2A4RG (SLC2A4 regulator) | 0.175 | 0.535 | 0.289 |
| RNLS (renalase, FAD dependent amine oxidase) | 0.199 | 0.515 | 0.509 |
| TCF20 (transcription factor 20) | 0.0817 | 0.0806 | 0.234 |
| C6 (complement C6) | 0.133 | 0.178 | 0.328 |
| ZDHHC13 (zDHHC palmitoyltransferase 13) | 0.075 | 0.106 | 0.308 |
| SPEF2 (sperm flagellar and cilia associated 2) | 0.0989 | 0.155 | 0.263 |
| KAT5 (lysine acetyltransferase 5) | 0.107 | 0.232 | 0.359 |

Continued; the last 6 above are carried over.
| gene | BNIP3L mRNA, set 1 | NDRG1 mRNA, set 1 | BNIP3 mRNA, set 1 |
| --- | --- | --- | --- |
| RNLS (renalase, FAD dependent amine oxidase) | 0.199 | 0.515 | 0.509 |
| TCF20 (transcription factor 20) | 0.0817 | 0.0806 | 0.234 |
| C6 (complement C6) | 0.133 | 0.178 | 0.328 |
| ZDHHC13 (zDHHC palmitoyltransferase 13) | 0.075 | 0.106 | 0.308 |
| SPEF2 (sperm flagellar and cilia associated 2) | 0.0989 | 0.155 | 0.263 |
| KAT5 (lysine acetyltransferase 5) | 0.107 | 0.232 | 0.359 |
| NUP133 (nucleoporin 133) | 0.0677 | 0.108 | 0.263 |
| DLG1 (discs large MAGUK scaffold protein 1) | 0.124 | 0.192 | 0.183 |
| APOD (apolipoprotein D) | 0.121 | 0.114 | 0.276 |
| MICALL1 (MICAL like 1) | 0.0666 | 0.201 | 0.239 |
| RBM45 (RNA binding motif protein 45) | 0.0717 | 0.331 | 0.352 |
| GDAP1 (ganglioside induced differentiation associated protein 1) | 0.115 | 0.134 | 0.403 |
| PRG2 (proteoglycan 2, pro eosinophil major basic protein) | 0.0548 | 0.156 | 0.216 |
| CD1D (CD1d molecule) | 0.131 | 0.217 | 0.455 |
| LTB4R2 (leukotriene B4 receptor 2) | 0.16 | 0.645 | 0.421 |
| GASK1B (golgi associated kinase 1B) | 0.0843 | 0.201 | 0.202 |
| APOL6 (apolipoprotein L6) | 0.135 | 0.159 | 0.319 |
| TMF1 (TATA element modulatory factor 1) | 0.0906 | 0.148 | 0.341 |
| SBF1 (SET binding factor 1) | 0.0998 | 0.274 | 0.298 |
| PLOD2 (procollagen-lysine,2-oxoglutarate 5-dioxygenase 2) | 0.114 | 0.116 | 0.269 |
| MT1E (metallothionein 1E) | 0.0817 | 0.199 | 0.348 |
| IDUA (alpha-L-iduronidase) | 0.0647 | 0.171 | 0.222 |
| BRK1 (BRICK1 subunit of SCAR/WAVE actin nucleating complex) | 0.149 | 0.194 | 0.251 |
| ZCCHC17 (zinc finger CCHC-type containing 17) | 0.119 | 0.169 | 0.274 |
| SLC35E3 | 0.0682 | 0.0968 | 0.256 |
| RAD54L (RAD54 like) | 0.134 | 0.102 | 0.278 |
